{"source": "patent US20180344199A1", "about": "“OPTIMIZED PLACEMENT OF CANNULA FOR DELIVERY OF THERAPEUTICS TO THE BRAIN” (The Regents of the University of California, priority 2010, published 2018)", "key": {"[1]": {"assay": "CED infusion of GDL or free Gadoteridol into NHP putamen, real-time MRI distribution", "format": "in vivo, Rhesus macaques and Cynomolgus monkeys", "settings": "of 17 cases with relatively large leakage during CED", "method": "Thirteen normal adult NHP, including 11 Rhesus macaques (7 male and 4 female, aged from 8 to 18 years; mean age 11.9 years, weight 4-9.4 kg) and 2 Cynomolgus monkeys (one male and one female, age 7 years for both; weight 5 and 7 kg respectively) were the subjects in the present study. Experimentation was performed according to the National Institutes of Health guidelines and to the protocols approved by the Institutional Animal Care and Use Committee at the University of California San Francisco (San Francisco, Calif.) and at Valley Biosystems (Sacramento, Calif.). Thirteen animals received a total of 25 intracranial infusion of GDL (2 mM) or free Gadoteridol (2 mM, Prohance; Bracco Diagnostics, Princeton, N.J.) into the putamen. Infusions were performed by previously established CED techniques for NHP (Bankiewicz, Eberling et al. 2000). GDL were prepared as previously described (Fiandaca, Varenika et al. 2008) (Krauze, McKnight et al. 2005).\nPrimates received a baseline MRI before surgery to visualize anatomical landmarks and to generate stereotactic coordinates of the proposed target infusion sites for each animals. NHPs underwent neurosurgical procedures to position the MRI-compatible guide cannula over the putamen. […] Vital signs, such as heart rate and PO2, were monitored throughout the procedure.\nBriefly, the infusion system consisted of a fused silica reflux-resistant cannula (Fiandaca, Varenika et al. 2008) (Krauze, McKnight et al. 2005) that was connected to a loading line (containing GDL or free Gadoteridol), an infusion line with oil, and another infusion line with trypan blue solution. […] The length of each infusion cannula was measured to ensure that the distal tip extended 3 mm beyond the length of the respective guide. […]\nNHPs were sedated with a mixture of ketamine (Ketaset, 7 mg/kg, IM) and xylazine (Rompun, 3 mg/kg, IM). […] The ear-bar and eye-bar measurements were recorded, and an intravenous line was established. […]"}, "[2]": {"assay": "CED infusion of gadoteridol into NHP thalamus, real-time MRI distribution", "format": "in vivo, Cynomolgus monkeys and Rhesus macaques", "settings": "of 14 thalamic infusions"}}}
{"smiles": "CC(O)CN1CCN(CC(=O)[O-])CCN(CC(=O)[O-])CCN(CC(=O)[O-])CC1.[Gd+3]", "note": "(centres unmarked) [Gadoteridol]", "values": [{"measurement": "cases with leakage into CC", "setting": "[1]", "result": 100, "unit": "%"}, {"measurement": "cases with leakage into EC", "setting": "[1]", "result": 5.9, "unit": "%"}, {"measurement": "cases with leakage into IC", "setting": "[1]", "result": 17.6, "unit": "%"}, {"measurement": "cases with excellent distribution in the thalamus", "setting": "[2]", "result": 57.1, "unit": "%"}, {"measurement": "cases with good distribution in the thalamus with leakage", "setting": "[2]", "result": 42.9, "unit": "%"}]}
